Results: the RNAGym collection of RNA variant scans (doi:10.1126/science.aae0568)
This sample is rich in variants without activity.

B1: tRNA (parent)
chain: GUUCCGUUGGCGUAAUGGUAACGCGUCUCCCUCCUAAGGAGAAGACUGCGGGUUCGAGUCCCGUACGGAACG

Variants of: B1
Assay: yeast fitness relative to wild type (ratio to wild type); higher = fitter; tRNA-Arg(CCU), competitive growth, 37 C, YPD
Procedure, shortened: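 Variants of the tRNA-Arg(CCU) gene, chemically synthesised with a 3% per-site mutation rate at 69 sites, were placed at the native genomic locus in Saccharomyces cerevisiae. The pooled strains were competed in YPD at 37°C for 24 hours in six parallel replicates. Gene amplicons from the start population and from each end population were read by 100-nucleotide paired-end sequencing. Darwinian fitness relative to wild type came from changes in genotype frequencies; genotypes needed ≥ 100 starting reads, and estimates < 0.5 were set to 0.5.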

A15C A36G C46A C61A and A15C A37C A57C cannot be ordered by yeast fitness: ≤ 0.5 for the first, ≤ 0.5 for the second.

A15C A40C U54C and A15C A43C G58A cannot be ordered by yeast fitness: ≤ 0.5 for the first, ≤ 0.5 for the second.

A15C A45C A65G and A15C C22A A42C C46A A65U cannot be ordered by yeast fitness: ≤ 0.5 for the first, ≤ 0.5 for the second.

A15C C22U A40U G48A U53A G67C and A15C C22U A42U U47A C66U cannot be ordered by yeast fitness: ≤ 0.5 for the first, ≤ 0.5 for the second.

A15C C24A A43U and A15C C27G G67C cannot be ordered by yeast fitness: ≤ 0.5 for the first, ≤ 0.5 for the second.

A15C C27U G52A C61A and A15C C29U C31A G51C cannot be ordered by yeast fitness: ≤ 0.5 for the first, ≤ 0.5 for the second.

A15C C30U C31G A42U A57C G67U and A15C C31A A37G C55U A57G cannot be ordered by yeast fitness: ≤ 0.5 for the first, ≤ 0.5 for the second.

A15C C31A A37U and A15C C31A G50A cannot be ordered by yeast fitness: ≤ 0.5 for the first, ≤ 0.5 for the second.

A15C C31G C33G C55U and A15C C31G C55A G67A cannot be ordered by yeast fitness: ≤ 0.5 for the first, ≤ 0.5 for the second.

Compared with A15C C31U C66A A69U, A15C C31U G38A G56C A70U is higher in yeast fitness: ≤ 0.5 for the first, 0.581 for the second.

First: A15C C46G G63C C66A
Second: A15C C46U A69U
The yeast fitness of the first is lower: ≤ 0.5 for the first, 0.814 for the second.

Compared with A15C C55A G58C, A15C C61U A69U is higher in yeast fitness: ≤ 0.5 for the first, 0.571 for the second.

A15C G23C C60U and A15C G25A A43C cannot be ordered by yeast fitness: ≤ 0.5 for the first, ≤ 0.5 for the second.

A15C G25A G48C C66U G67C A70G and A15C G25C C29U U35C A43U cannot be ordered by yeast fitness: ≤ 0.5 for the first, ≤ 0.5 for the second.

A15C G58C G63A and A15C G63A A70U cannot be ordered by yeast fitness: ≤ 0.5 for the first, ≤ 0.5 for the second.

First: A15C U16G A37C C66A
Second: A15C U19A G39A
The yeast fitness of the first is lower: ≤ 0.5 for the first, 0.519 for the second.

A15C U19C A21G C34U and A15C U26A C31G U32A G50U G63A cannot be ordered by yeast fitness: ≤ 0.5 for the first, ≤ 0.5 for the second.

Compared with A15C U47A A65C, A15G is higher in yeast fitness: 0.561 for the first, 0.987 for the second.

A15G A20U C29G A43G G58C A69U and A15G A21C C24G A40U A57G U64A cannot be ordered by yeast fitness: ≤ 0.5 for the first, ≤ 0.5 for the second.

A15G A21G C29G C55A and A15G A21G C29G C55A C66A cannot be ordered by yeast fitness: ≤ 0.5 for the first, ≤ 0.5 for the second.

A15G A21G U54G C55U and A15G A36U C49A G52A cannot be ordered by yeast fitness: ≤ 0.5 for the first, ≤ 0.5 for the second.

Compared with A15G A69C, A15G C22U A36U is lower in yeast fitness: 0.999 for the first, ≤ 0.5 for the second.

A15G C24G C31G G50A and A15G C24G C49U G63A G68A cannot be ordered by yeast fitness: ≤ 0.5 for the first, ≤ 0.5 for the second.

Compared with A15G C24G U26A A36G G52A G68C, A15G C24G U26A G52A G67A G68C is higher in yeast fitness: ≤ 0.5 for the first, 0.561 for the second.

A15G C29G C31A and A15G C30A C31U A45C C55G cannot be ordered by yeast fitness: ≤ 0.5 for the first, ≤ 0.5 for the second.

Compared with A15G C33G, A15G C34G A42C is lower in yeast fitness: 0.732 for the first, ≤ 0.5 for the second.

A15G G17U A37C C46U C49U and A15G G18A G38C G68U cannot be ordered by yeast fitness: ≤ 0.5 for the first, ≤ 0.5 for the second.

A15G G18C A20G and A15G G23A C31U cannot be ordered by yeast fitness: ≤ 0.5 for the first, ≤ 0.5 for the second.

First: A15G G25A A57U A65U
Second: A15G G25A U32G A40G C60G
The yeast fitness of the first is lower: ≤ 0.5 for the first, 0.501 for the second.

A15G G25A U32G A40G C60G C62A and A15G G25C A42G C66G cannot be ordered by yeast fitness: ≤ 0.5 for the first, ≤ 0.5 for the second.

A15G G44A G50C A69C and A15G G44C A65C cannot be ordered by yeast fitness: ≤ 0.5 for the first, ≤ 0.5 for the second.

Going from A15G U16C C29A U47C to A15G U32A A43U, the yeast fitness rises from ≤ 0.5 to 0.603.

Compared with A15G U35G A43G A45G C66U, A15U A20C C27U is higher in yeast fitness: ≤ 0.5 for the first, 0.748 for the second.

A15U A20G C27U and A15U A20G G41C cannot be ordered by yeast fitness: ≤ 0.5 for the first, ≤ 0.5 for the second.

A15U A21C C33U A37U G68C and A15U A21G C24U C33U A40C A43C C49U cannot be ordered by yeast fitness: ≤ 0.5 for the first, ≤ 0.5 for the second.

A15U A21G C29U G44C C55A G56C and A15U A37G C46U C60A cannot be ordered by yeast fitness: ≤ 0.5 for the first, ≤ 0.5 for the second.

Going from A15U A43G U64C to A15U A43U A69C, the yeast fitness rises from ≤ 0.5 to 0.697.

Compared with A15U A45U C46A G63A, A15U A65G is higher in yeast fitness: ≤ 0.5 for the first, 0.649 for the second.

A15U C22G C31U G50A and A15U C22G C31U U47C U59C cannot be ordered by yeast fitness: ≤ 0.5 for the first, ≤ 0.5 for the second.

A15U C22G G58C G68A and A15U C22U C31G U53A C55U A57C C60G G67C cannot be ordered by yeast fitness: ≤ 0.5 for the first, ≤ 0.5 for the second.

First: A15U C24A C34G G39U A65G
Second: A15U C24G G67C
The yeast fitness of the first is higher: 0.651 for the first, ≤ 0.5 for the second.

A15U C24U C61A and A15U C27U A36G cannot be ordered by yeast fitness: ≤ 0.5 for the first, ≤ 0.5 for the second.

A15U C27U C34U A42U and A15U C29A A57C U59A cannot be ordered by yeast fitness: ≤ 0.5 for the first, ≤ 0.5 for the second.

Compared with A15U C30G C34U C66U A70C, A15U C30U A65U is lower in yeast fitness: 0.511 for the first, ≤ 0.5 for the second.

First: A15U C31A C49G A70C
Second: A15U C31U A36G
The yeast fitness of the first is lower: ≤ 0.5 for the first, 0.568 for the second.

A15U C33U C62G A69C and A15U C34G A37G A40C U59C cannot be ordered by yeast fitness: ≤ 0.5 for the first, ≤ 0.5 for the second.

Compared with A15U C49G A70G, A15U C55G A70C is lower in yeast fitness: 0.576 for the first, ≤ 0.5 for the second.

A15U C62G A69U and A15U G18A C33G A42C cannot be ordered by yeast fitness: ≤ 0.5 for the first, ≤ 0.5 for the second.

A15U G18C G41A A69C A70G and A15U G23A C49G G63C cannot be ordered by yeast fitness: ≤ 0.5 for the first, ≤ 0.5 for the second.

Compared with A15U G48A, A15U U19A C24A A57C A65C A70U is lower in yeast fitness: 0.763 for the first, ≤ 0.5 for the second.

Compared with A15U U28A C46A, A15U U32A C62U G63C is lower in yeast fitness: 0.507 for the first, ≤ 0.5 for the second.

Going from U16A A36G G51A to U16A A37G C62U, the yeast fitness rises from ≤ 0.5 to 0.543.

U16A A42G G67U and U16A A57U G67C cannot be ordered by yeast fitness: ≤ 0.5 for the first, ≤ 0.5 for the second.

U16A C22A C24G and U16A C22G C34U U64A A65C cannot be ordered by yeast fitness: ≤ 0.5 for the first, ≤ 0.5 for the second.

Going from U16A C24G C29G C31G C61A to U16A C24U C34A, the yeast fitness rises from ≤ 0.5 to 0.656.

First: U16A C27G C46G G67A
Second: U16A C29G A36C
The yeast fitness of the first is higher: 0.505 for the first, ≤ 0.5 for the second.

First: U16A C29G A43U A70U
Second: U16A C33G C49A
The yeast fitness of the first is lower: ≤ 0.5 for the first, 0.537 for the second.

First: U16A C34A U64C
Second: U16A C46G A70G
The yeast fitness of the first is lower: 0.513 for the first, 0.604 for the second.

U16A C61G C62G G68C and U16A G17A C22G U53A A69C cannot be ordered by yeast fitness: ≤ 0.5 for the first, ≤ 0.5 for the second.

U16A G17A C66U and U16A G18C U26A A65C cannot be ordered by yeast fitness: ≤ 0.5 for the first, ≤ 0.5 for the second.

U16A G18C U35A C55G A69C and U16A G58C U64A A69U cannot be ordered by yeast fitness: ≤ 0.5 for the first, ≤ 0.5 for the second.

Compared with U16A G67A, U16A U32C A37U C49G A70U is lower in yeast fitness: 0.926 for the first, ≤ 0.5 for the second.

U16C A20C A36U and U16C A36G A45G U59A cannot be ordered by yeast fitness: ≤ 0.5 for the first, ≤ 0.5 for the second.

First: U16C A37C C60U
Second: U16C A42G
The yeast fitness of the first is lower: ≤ 0.5 for the first, 0.904 for the second.

U16C C24G A42C C62U and U16C C24U C29G C49U A65U cannot be ordered by yeast fitness: ≤ 0.5 for the first, ≤ 0.5 for the second.

U16C C24U C34A A70C and U16C C24U C34G C62U cannot be ordered by yeast fitness: ≤ 0.5 for the first, ≤ 0.5 for the second.

U16C C29G C60G and U16C C31U G52A cannot be ordered by yeast fitness: ≤ 0.5 for the first, ≤ 0.5 for the second.

U16C C33U A36U A42U U64C and U16C C34G C62U cannot be ordered by yeast fitness: ≤ 0.5 for the first, ≤ 0.5 for the second.

Going from U16C C46G G56A to U16C C49U A57G, the yeast fitness falls from 0.748 to ≤ 0.5.

U16C C49U C62U G67A and U16C G17A C49U A70G cannot be ordered by yeast fitness: ≤ 0.5 for the first, ≤ 0.5 for the second.

Compared with U16C G18A C24G A45U U59G G68C, U16C G18C A45C A57C G68C is lower in yeast fitness: 0.537 for the first, ≤ 0.5 for the second.

U16C G25U U32C A69C and U16C G44A C55A cannot be ordered by yeast fitness: ≤ 0.5 for the first, ≤ 0.5 for the second.

First: U16C G56A G68A
Second: U16C U19C G44C G56C
The yeast fitness of the first is higher: 0.69 for the first, ≤ 0.5 for the second.

U16C U28A C29G G58C and U16C U28C C55U A57C G58A cannot be ordered by yeast fitness: ≤ 0.5 for the first, ≤ 0.5 for the second.

U16C U35G G48C C66U and U16C U47C C60U C62A cannot be ordered by yeast fitness: ≤ 0.5 for the first, ≤ 0.5 for the second.

First: U16C U54A C66U
Second: U16C U59A
The yeast fitness of the first is lower: ≤ 0.5 for the first, 0.852 for the second.

U16G A20G C33G C55G and U16G A21C A43U cannot be ordered by yeast fitness: ≤ 0.5 for the first, ≤ 0.5 for the second.

U16G A21C G25A A43G U59A and U16G A21C G25C A37C A40U cannot be ordered by yeast fitness: ≤ 0.5 for the first, ≤ 0.5 for the second.

First: U16G A36U
Second: U16G A42G G48A
The yeast fitness of the first is higher: 0.589 for the first, ≤ 0.5 for the second.

U16G C24U U28C A36C U59C A65C and U16G C27A C46A cannot be ordered by yeast fitness: ≤ 0.5 for the first, ≤ 0.5 for the second.

First: U16G C29U
Second: U16G C30G A57U U59G
The yeast fitness of the first is higher: 0.806 for the first, ≤ 0.5 for the second.

U16G C30G G52C and U16G C31U A42U A69U cannot be ordered by yeast fitness: ≤ 0.5 for the first, ≤ 0.5 for the second.

First: U16G C34U A40G A43G C62A A69C
Second: U16G C49U G63A
The yeast fitness of the first is lower: ≤ 0.5 for the first, 0.994 for the second.

Variant U16G C60A has a yeast fitness of 0.606.
